The text below walks through data of PMC10201424.

Holding throughout (experiment): EMSA
(Mobility shift assays separate free from complexed probe on a gel.)

Data set [1] has as its target T1, Mer3 (Saccharomyces cerevisiae) (UniProt P51979).
T1 sequence (looked up): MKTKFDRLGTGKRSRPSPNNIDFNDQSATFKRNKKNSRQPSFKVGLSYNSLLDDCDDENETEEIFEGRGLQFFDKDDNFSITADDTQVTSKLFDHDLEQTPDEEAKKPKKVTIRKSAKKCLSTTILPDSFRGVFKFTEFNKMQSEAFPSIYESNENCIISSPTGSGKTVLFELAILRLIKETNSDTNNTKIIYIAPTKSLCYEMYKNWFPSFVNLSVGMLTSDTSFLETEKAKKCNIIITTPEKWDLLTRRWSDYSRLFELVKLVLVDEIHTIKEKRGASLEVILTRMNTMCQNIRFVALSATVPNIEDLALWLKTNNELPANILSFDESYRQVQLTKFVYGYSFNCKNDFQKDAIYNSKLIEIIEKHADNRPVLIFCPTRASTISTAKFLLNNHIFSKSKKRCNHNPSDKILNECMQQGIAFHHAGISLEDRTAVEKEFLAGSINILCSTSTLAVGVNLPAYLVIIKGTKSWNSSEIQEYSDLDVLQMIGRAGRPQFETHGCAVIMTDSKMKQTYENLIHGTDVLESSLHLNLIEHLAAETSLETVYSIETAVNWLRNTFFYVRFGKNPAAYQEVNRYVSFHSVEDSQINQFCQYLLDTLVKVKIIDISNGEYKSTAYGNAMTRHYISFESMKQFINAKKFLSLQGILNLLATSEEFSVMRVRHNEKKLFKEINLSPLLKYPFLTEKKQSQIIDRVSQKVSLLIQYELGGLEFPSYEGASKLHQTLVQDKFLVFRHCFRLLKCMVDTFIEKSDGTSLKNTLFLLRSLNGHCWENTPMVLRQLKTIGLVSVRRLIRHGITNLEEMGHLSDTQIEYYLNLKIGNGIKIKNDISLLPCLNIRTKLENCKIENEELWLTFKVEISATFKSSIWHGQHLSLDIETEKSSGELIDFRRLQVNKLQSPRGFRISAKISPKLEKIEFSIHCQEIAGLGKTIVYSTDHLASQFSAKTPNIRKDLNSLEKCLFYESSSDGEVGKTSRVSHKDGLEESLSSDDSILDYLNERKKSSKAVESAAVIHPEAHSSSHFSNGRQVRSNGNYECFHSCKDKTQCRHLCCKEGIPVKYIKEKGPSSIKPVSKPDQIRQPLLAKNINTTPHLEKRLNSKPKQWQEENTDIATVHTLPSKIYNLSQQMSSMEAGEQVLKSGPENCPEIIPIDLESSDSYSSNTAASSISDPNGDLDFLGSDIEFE
The note with it: EMSA: 25 mM HEPES pH 7.5, 0.1 ug/ul BSA, 60 mM NaCl, 10 nM DNA, 20 min at 30 C, 0.8% agarose in 1x TAE, Mer3 37.5-300 nM, Mlh1-Mlh2 20-150 nM, recombinant protein, residues 1-1187, protein details: C-terminal Twin-StrepII.

In the next data set the test system is His-Mlh1 + Strep-Mlh2. As to conditions: more limited binding than D-loop, EMSA: 25 mM HEPES pH 7.5, 0.1 ug/ul BSA, 60 mM NaCl, 10 nM DNA, 20 min at 30 C, 0.8% agarose in 1x TAE, Mer3 37.5-300 nM, Mlh1-Mlh2 20-150 nM, recombinant protein, protein details: N-terminal 6xHis,N-terminal Twin-StrepII.
The next data set deals with MBP-Mlh1 + MBP-Mlh2. As to conditions: more limited binding than D-loop, EMSA: 25 mM HEPES pH 7.5, 0.1 ug/ul BSA, 60 mM NaCl, 10 nM DNA, 20 min at 30 C, 0.8% agarose in 1x TAE, Mer3 37.5-300 nM, Mlh1-Mlh2 20-150 nM, recombinant protein, protein details: N-terminal 6xHis-MBP,N-terminal 6xHis-MBP.
Setting [2] is: label: 5'-FAM, single-stranded DNA.

Construct, isoform or probe ends are uncertain for at least one entry. A weaker result is weaker than the reference pair of the same experiment. For part of these data: At least one verdict was read from the data and is not stated in words by the source. For part of these data: Tags and fusion partners may be left off the protein sequences shown.

In the case of “GGGTCAACGTGGGCAAAGATGTCCTAGCAATGTAATCGTCTATGACGTT / TGCCGAATTCTACCAGTGCCAGTGATGGACATCTTTGCCCACGTTGACCC [Y-form (1253-T/1254)]”, in data set [1] (ssDNA and D-loop stated as highest affinity, label: 5'-FAM on strand 1), the binding result is “binds more weakly”.
Turning to “TGGGTCAACGTGGGCAAAGATGTCCTAGCAATGTAATCGTCTATGACGTT (double strand) [dsDNA (1253/1253C)]”, the binding result in the data set on His-Mlh1 + Strep-Mlh2 (label: 5'-FAM on strand 1) and in the data set with MBP-Mlh1 + MBP-Mlh2 (label: 5'-FAM on strand 1) was “binds more weakly” each time.
Consider “TGGGTCAACGTGGGCAAAGATGTCCTAGCAATGTAATCGTCTATGACGTT [ssDNA 1253]”, for which the binding result in the data set on His-Mlh1 + Strep-Mlh2 (setting [2]) is “binds more weakly”; with MBP-Mlh1 + MBP-Mlh2 (setting [2]) it was “binds more weakly”; in data set [1] (no Mg or ATP, high affinity, label: 5'-FAM, single-stranded DNA), “binds”.
